Data taken from patent US11976137B2 (Cambridge Enterprise Limited, priority 2018, dated 2024).
End groups of sequences in plain letters are not given here. Some peptides are written in HELM: one residue between dots, names in brackets for other building blocks, links after the first $.

Experiment: peptide made by a vendor (Fmoc solid-phase peptide synthesis)
Details: whole synthesis, LCMS and mass spectrometry

| Substance | final purity (method not given) | final LC-MS purity |
| --- | --- | --- |
| ARPR-Nle-Abu-KH-Abu-R-Aib-R-Nle | 98.42% | – |
| ARPR-Nle-Abu-KH-Abu-R-Aib-R-Nle-(2-Aminoindane) | 97.67% | – |
| ARPR-Nle-Abu-KH-Abu-R-Aib-R-Nle-(3-(1-naphthyl)alanine) | 98.83% | – |
| ARPR-Nle-Abu-KH-Abu-R-Aib-R-Nle-(3-(2-naphthyl)alanine) | 97.74% | – |
| ARPR-Nle-Abu-KH-Abu-R-Aib-R-Nle-(4-Aminopiperidine-4-carboxylic acid) | 98.75% | – |
| ARPR-Nle-Abu-KH-Abu-R-Aib-R-Nle-(4-benzoylphenylalanine) | 98.53% | – |
| ARPR-Nle-Abu-KH-Abu-R-Aib-R-Nle-(4-chlorophenylalanine) | 98.74% | – |
| ARPR-Nle-Abu-KH-Abu-R-Aib-R-Nle-(4-methoxyphenylalanine) | 98.56% | – |
| ARPR-Nle-Abu-KH-Abu-R-Aib-R-Nle-(Alpha-Methyl-L-phenylalanine) | 95.03% | – |
| ARPR-Nle-Abu-KH-Abu-R-Aib-R-Nle-(O-Benzyltyrosine) | 98.33% | – |
| ARPR-Nle-Abu-KH-Abu-R-Aib-R-Nle-Alanine | 97.78% | – |
| ARPR-Nle-Abu-KH-Abu-R-Aib-R-Nle-Phenylalanine | 97.88% | – |
| ARPR-Nle-Abu-KH-Abu-R-Aib-R-Nle-Phenylglycine | 99.09% | – |
| Ac-ARPR-Nle-Abu-K(GluPAL)-H-Abu-R-Aib-R-Nle-(3,4,5-trifluorophenylalanine) | 95.76% | – |
| Ac-ARPR-Nle-Abu-K(PAL)-H-Abu-R-Aib-R-Nle-(3,4,5-trifluorophenylalanine) | 96.91% | – |
| CRPR-Nle-CHKCR-Aib-R-Nle-(3,4,5-trifluoro-)F | 95.07% | – |
| CRPR-Nle-CKHCR-Aib-R-Nle-(3,4,5-trifuoro-)F | – | 97.69% |
| CRPRLCHKCRPRLC | – | 98.99% |
| CRPRLCKHCRPRLC | – | 95.35% |
| Myristoyl-CRPR-Nle-CKHCR-Aib-R-Nle-(3,4,5-trifluoro-)F | 97.59% | – |
| PEPTIDE1{A.R.P.R.[Nle].C.K.H.[Abu].R.[Aib].R.[Nle].[Tfpa]}$$$$V2.0 | 95.46% | – |
| PEPTIDE1{A.R.P.R.[Nle].[Abu].K.H.[Abu].R.[Aib].R.[Nle].[Tfpa]}$$$$V2.0 | 97.38% | – |
| PEPTIDE1{C.R.P.R.[Nle].C.K.H.[Abu].R.[Aib].R.[Nle].[Tfpa]}$$$$V2.0 | 96.08% | – |
| PEPTIDE1{C.R.P.R.[Nle].[Abu].K.H.C.R.[Aib].R.[Nle].[Tfpa]}$$$$V2.0 | 95.06% | – |
| PEPTIDE1{Q.R.P.R.[Nle].C.K.H.C.R.[Aib].R.[Nle].[Tfpa]}$$$$V2.0 | – | 95.95% |
| PEPTIDE1{[Glp].R.P.R.[Nle].C.K.H.C.R.[Aib].R.[Nle].[Tfpa]}$$$$V2.0 | 96% | – |
| PEPTIDE1{[Glp].R.P.R.[Nle].[Abu].K.H.[Abu].R.[Aib].R.[Nle].[Tfpa]}$$$$V2.0 | 97.13% | – |
| PEPTIDE1{[Myr].A.R.P.R.[Nle].[Abu].H.K.[Abu].R.[Aib].R.[Nle].[Tfpa]}$$$$V2.0 | 95.12% | – |
| PEPTIDE1{[ac].A.R.P.R.[Nle].C.K.H.[Abu].R.[Aib].R.[Nle].[Tfpa]}$$$$V2.0 | 95.08% | – |

Same assay, conditions: whole synthesis, LCMS and mass spectrometry; run 1

| Substance | final purity (method not given) | final LC-MS purity |
| --- | --- | --- |
| PEPTIDE1{[Myr].A.R.P.R.[Nle].[Abu].K.H.[Abu].R.[Aib].R.[Nle].[Tfpa]}$$$$V2.0 | 95.19% | – |
| cyclo(1-6)CRPRLC-KH-cyclo(9-14)CRPRLC | – | 95.01% |

Same assay, conditions: whole synthesis, LCMS and mass spectrometry; run 2

| Substance | final purity (method not given) | final LC-MS purity |
| --- | --- | --- |
| PEPTIDE1{[Myr].A.R.P.R.[Nle].[Abu].K.H.[Abu].R.[Aib].R.[Nle].[Tfpa]}$$$$V2.0 | 96.47% | – |
| cyclo(1-6)CRPRLC-KH-cyclo(9-14)CRPRLC | – | 97.15% |
